Here are results for one molecule from patent WO2017222556A2 (dated 2017).

One assay addresses T1, human NKG2D-Fc (human, UniProt P26718 78-216).
T1 construct: also called human NKG2D-Fc reagent; not shown: Fc part, not described
T1 sequence (looked up): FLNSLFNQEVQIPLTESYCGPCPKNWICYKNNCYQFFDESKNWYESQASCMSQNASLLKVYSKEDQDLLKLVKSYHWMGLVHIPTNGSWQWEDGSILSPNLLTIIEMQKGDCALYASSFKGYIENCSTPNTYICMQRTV
Put plainly: competition ELISA: inhibition of human NKG2D-Fc binding to plate-coated WT sMICA. (An ELISA detects its analyte on a solid surface through an enzyme-linked reagent.)

The next assay concerns the target T2, mouse NKG2D-Fc (mouse, UniProt O54709 94-232).
T2 construct: also called murine NKG2D-Fc; murine NKG2D; not shown: Fc part, not described
T2 sequence (looked up): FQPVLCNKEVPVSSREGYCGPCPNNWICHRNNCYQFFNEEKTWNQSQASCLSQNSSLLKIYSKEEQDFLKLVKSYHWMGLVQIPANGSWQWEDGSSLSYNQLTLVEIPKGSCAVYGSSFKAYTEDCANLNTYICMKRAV
Briefly: competition ELISA: inhibition of mouse NKG2D-Fc binding to plate-coated MICA.

Results are given in words; binding and its absence hold for the method and conditions named. Some results given as binding are weak or reduced against the parent protein; the word gives no strength. For some assays here: Sequences can lack the tags named with a protein.

B1: WT al-a2 soluble MICA protein (ligand, UniProt Q29983 24-204, looked up, not shown: small tags and cut ends)
chain: EPHSLRYNLTVLSWDGSVQSGFLTEVHLDGQPFLRCDRQKCRAKPQGQWAEDVLGNKTWDRETRDLTGNGKDLRMTLAHIKDQKEGLHSLQEIRVCEIHEDNSTRSSQHFYYDGELFLSQNLETKEWTMPQSSRAQTLAMNVRNFLKEDAMKTKTHYHAMHADCLQELRRYLKSGVVLRRT
For B1, the binding result with human NKG2D-Fc and with mouse NKG2D-Fc was “binds” each time.
